Binding data for 1 molecule are collected here from patent US20050054822A1.

Results are given in words; binding and its absence hold for the method and conditions named. Binding seen in cells or lysates may run through a third protein. Binding calls can cover weak binding; strength is not graded here. Where a sequence is shown, tags or fusion partners need not be part of it.

The test deals with apolipoprotein A-I (ApoA-I). Nature of the test: copurification on anti-FLAG antibody affinity column from 293 conditioned medium.

B1: FLAG-HIN-2 (mature human HIN-2 with a carboxy-terminal Flag tag, secreted from 293 cells) (ligand, not shown: small tags and cut ends)
chain: FLINKVPLPVDKLAPLPLDNILPFMDPLKLLLKTLGISVEHLVEGLRKCVNELGPEASEAVKKLLEALSHLV
In the case of B1, the binding entry is “binds”.
